In patent publication US20250277032A1 one finds binding data, which are given here for one molecule.

These are yes or no findings as the source states them, for the method shown. A result given as binding can be weak or reduced; the word gives no strength.

The test concerns the target cynomolgus ILT3 (cynomolgus). The experiment in a line: flow cytometry histograms, antibody at 50 µg/ml. In general terms: In flow cytometry, cells or beads pass a laser one at a time.

B1: 7A5 (antibody, V domains shown)
VH: EVKLVESGGGLVKPGGSLKLSCAASGFTFSSYAMSWVRQTPAKRLEWVATISSDGGNTYYTDSVKGRFTISRDNARNTLDLQMSSLRSEDTAMYYCARHDGRGALDYWGQGTSVTVSS
VL: DIQMTQTTSSLSASLGDRVTISCRASQDISNYLNWYQQKPDGTVKLLIYYTSRLHSGVPSRFSGSGSGTDYSLTISNLEQEDIATYFCQQGNTLPWTFGGGTKLEIK
Consider B1, for which the binding result was “binds”.
